## Primary screen of a compound library

Chains of the proteins cited; added tags and fusions are not shown.
UniProt E9BF75, entry or part of it: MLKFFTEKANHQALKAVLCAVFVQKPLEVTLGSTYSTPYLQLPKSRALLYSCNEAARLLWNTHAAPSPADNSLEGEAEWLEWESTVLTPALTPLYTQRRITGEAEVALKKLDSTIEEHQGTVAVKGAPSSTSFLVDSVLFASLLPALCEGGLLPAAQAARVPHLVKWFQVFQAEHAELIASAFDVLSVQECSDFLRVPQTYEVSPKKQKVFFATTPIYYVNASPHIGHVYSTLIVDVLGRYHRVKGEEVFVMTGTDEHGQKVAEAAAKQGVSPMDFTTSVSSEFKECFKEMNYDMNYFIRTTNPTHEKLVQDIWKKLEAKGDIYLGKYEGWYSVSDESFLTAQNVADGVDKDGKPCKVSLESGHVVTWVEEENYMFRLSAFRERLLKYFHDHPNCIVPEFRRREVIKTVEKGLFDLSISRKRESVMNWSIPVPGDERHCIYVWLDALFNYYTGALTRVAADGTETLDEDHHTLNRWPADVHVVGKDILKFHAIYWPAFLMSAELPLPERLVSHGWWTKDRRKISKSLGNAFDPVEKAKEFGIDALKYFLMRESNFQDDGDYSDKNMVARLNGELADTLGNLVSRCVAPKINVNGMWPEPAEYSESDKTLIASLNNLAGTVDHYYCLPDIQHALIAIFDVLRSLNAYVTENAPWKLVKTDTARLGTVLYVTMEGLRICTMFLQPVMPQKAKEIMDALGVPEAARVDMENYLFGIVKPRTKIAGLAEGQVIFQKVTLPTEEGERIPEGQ

Mtb heat-shock: 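Assay on Mycobacterium tuberculosis, filed only as a heat shock assay from Cornell; the read-out is not stated. The concentration is filed as 10 mM, unlikely as a test dose, so the dose is not known. The record gives no direction; compounds that gave an IC50 in retests scored well above the rest, so higher reads as stronger inhibition. Size under these conditions: about 69,000 compounds, about 930 of them at 50% or above in at least one test.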
LdMetRS: 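Methionyl-tRNA synthetase (putative), Leishmania donovani (UniProt E9BF75). Primary screen of methionyl-tRNA synthetase; the read-out is not stated. The test concentration is not given. Values are per cent inhibition. About 68,000 compounds were tested under these conditions; 0.035% (about 24) showed 50% or more at least once.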
Mtb growth Cornell: 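Whole-cell assay for inhibitors of Mycobacterium tuberculosis growth, labelled Cornell in the record; the read-out is not stated. The concentration is filed as 10 mM, unlikely as a test dose, so the dose is not known. The record gives no direction; compounds strong in two other growth screens of this library score well above the rest, so higher reads as stronger inhibition. About 53,000 compounds were tested under these conditions; 1.7% (about 900) showed 50% or more at least once.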

All values are in %. How 0% and 100% were set is not recorded. Most values in the screen are low, and negative values occur. This is an unselected part of the compounds tested. A dash means the value is not listed here; it may have been measured.

{"compound": "CN(Cc1nc2c(cnn2C)c(=O)[nH]1)Cc1ccc(F)cc1F", "Mtb heat-shock": 27.71, "LdMetRS": 7.362, "Mtb growth Cornell": 3.016}
{"compound": "NC(=O)c1cc(-n2cc(-c3cccc(C(=O)O)c3)cn2)cs1", "Mtb heat-shock": 7.091, "LdMetRS": -4.177, "Mtb growth Cornell": 32.06}
{"compound": "COc1ccc(Cl)cc1CS(=O)(=O)Cc1noc(C)n1", "Mtb heat-shock": -24.6, "LdMetRS": 3.663}
{"compound": "CSCC(=O)N1CCOC(c2nc(C(C)C)n[nH]2)C1", "stereo": "centres undefined", "Mtb heat-shock": -0.8306, "LdMetRS": 14.92, "Mtb growth Cornell": 26.7}
{"compound": "O=C(Cn1ccc2ccc(Br)cc21)NCc1ccc(C(=O)O)cc1", "Mtb heat-shock": -10.52, "LdMetRS": 2.113, "Mtb growth Cornell": 14.62}
{"compound": "NC(=O)COc1ccc(CNC(=O)CN2CCc3ccccc32)cc1", "Mtb heat-shock": -18.38, "LdMetRS": 13.04, "Mtb growth Cornell": -13.78}
{"compound": "Cc1cc(F)ccc1C(=O)N1C[C@@H]2COC[C@]2(COCC2CC2)C1", "LdMetRS": 15.94}
{"compound": "CSCc1noc(CN2CC3(CCCC3)CC2=O)n1", "Mtb heat-shock": -4.074, "LdMetRS": 9.938}
{"compound": "CCCn1ccnc1CN1CCC(Oc2cccc(F)c2)(C(=O)O)CC1", "Mtb heat-shock": 7.54, "LdMetRS": 9.966, "Mtb growth Cornell": -27.23}
{"compound": "COc1c(CNCc2nnc3n2CCCCC3)c(C(C)C)nn1C", "LdMetRS": 2.857}
{"compound": "OC1CCCN(Cc2ccnc(-c3cccnc3)n2)C1", "stereo": "centres undefined", "LdMetRS": 11}
{"compound": "CN(Cc1cn2c(n1)CN(C(=O)C1CCOCC1)CC2)Cc1ccco1", "Mtb heat-shock": -10.59, "LdMetRS": 14.18, "Mtb growth Cornell": 11.71}
{"compound": "CC(=O)Nc1nc(C(=O)Nc2ccc(F)cc2)cs1", "Mtb heat-shock": 16.53, "LdMetRS": 13.89}
{"compound": "COc1ccc(CC(=O)N2C[C@@H]3COC[C@]3(CN(C)C)C2)cc1", "LdMetRS": -21.89}
{"compound": "CCN(CC)C1CCN(c2nccc(C3CCCC3)n2)C1", "stereo": "centres undefined", "Mtb heat-shock": -24.2, "LdMetRS": 19.93, "Mtb growth Cornell": 13.87}
{"compound": "CN(CC(=O)Nc1cc(CC2CCCCC2)n[nH]1)S(C)(=O)=O", "Mtb heat-shock": -4.769, "LdMetRS": 10.59, "Mtb growth Cornell": 29.88}
{"compound": "Cc1cc(C)nc(C2CCN(C(=O)c3c(C)noc3C)C2)n1", "stereo": "centres undefined", "Mtb heat-shock": 4.28, "LdMetRS": 11.58, "Mtb growth Cornell": -42.78}
{"compound": "O=C(CCc1ccncc1)NCc1csc(Br)c1", "Mtb heat-shock": -16.65, "LdMetRS": 12.57}
{"compound": "CS(=O)(=O)CCC(=O)N1CCC(c2ccc(F)c(F)c2)CC1", "Mtb heat-shock": 5.747, "LdMetRS": 12.63, "Mtb growth Cornell": 34.71}
{"compound": "COC(C)(C)CC(C)NC(=O)NC1CCN(Cc2ccccn2)CC1", "stereo": "centres undefined", "Mtb heat-shock": -0.9996, "LdMetRS": 2.466}
{"compound": "C[C@H](c1ccc(F)cc1)n1c(C2CCC2)n[nH]c1=O", "Mtb heat-shock": -2.202, "LdMetRS": 15.25, "Mtb growth Cornell": 20.68}
{"compound": "CNC(=O)C1CN(C(=O)COc2ccccc2)Cc2cn(C)nc21", "stereo": "centres undefined", "Mtb heat-shock": -14.54, "LdMetRS": 14.82}
{"compound": "[H][C@@]12COC[C@]1(COc1ccc(C#N)cn1)CN(c1ncccn1)C2", "Mtb heat-shock": -9.67, "Mtb growth Cornell": -60.71}
{"compound": "O=C(NC1CCCC1)c1cc(Cn2cnc3ccccc32)on1", "Mtb heat-shock": -152.5, "LdMetRS": 20.24}
{"compound": "O=C(NCc1cccnc1)c1nc2c(s1)CCCN2C(=O)C1CC1.O=C(O)C(F)(F)F", "Mtb heat-shock": 0.5532, "Mtb growth Cornell": 6.625}
{"compound": "Cc1cc(C)n(CC2CN(Cc3cccc(C#N)c3)CCO2)n1", "stereo": "centres undefined", "Mtb heat-shock": -2.789, "LdMetRS": 14.44, "Mtb growth Cornell": 14.78}
{"compound": "Cc1ccccc1C1(CNc2nnc(C)c(C)c2C#N)CCOCC1", "Mtb heat-shock": 6.489, "LdMetRS": 18.48}
{"compound": "O=C(NCC[S+]([O-])Cc1ccccc1)c1ccc2[nH]c(=O)[nH]c2c1", "stereo": "centres undefined", "Mtb heat-shock": 16.12, "LdMetRS": 17.14, "Mtb growth Cornell": 16.94}
{"compound": "COC(=O)CN(Cc1ccccc1C)C(=O)COCC1CC1", "Mtb heat-shock": -3.558, "LdMetRS": 6.354}
{"compound": "CCS(=O)(=O)N1C[C@H]2CC[C@](O)(c3ccc(C)cc3)[C@H]2C1", "LdMetRS": 12.86}
{"compound": "CC(C)=CCN1C[C@@H]2CN(C(=O)c3cnccc3C)C[C@]2(C(=O)O)C1", "LdMetRS": 8.517}
{"compound": "CC(=O)Nc1cnc(-n2ccnc2)nc1", "Mtb heat-shock": -10.06, "LdMetRS": 11.18, "Mtb growth Cornell": 11.9}
{"compound": "CN(C)C1(CNc2nccc(C3CCCC3)n2)CCOCC1", "Mtb heat-shock": -27.27, "LdMetRS": 4.693, "Mtb growth Cornell": 17.52}
{"compound": "Cn1cc(-c2ncnc3c2CCN(CC2CCOC2)CC3)cn1.O=C(O)C(F)(F)F", "stereo": "centres undefined", "Mtb heat-shock": 17.32, "Mtb growth Cornell": -10.21}
{"compound": "CCc1c(O)n(C(C)CC)c(SCC(=O)c2ccccc2)nc1=O", "stereo": "centres undefined", "Mtb heat-shock": -6.256, "LdMetRS": 10.54, "Mtb growth Cornell": 28.35}
{"compound": "CC(C)CC(=O)N1CC(=O)N(CCc2ccccc2)CC(O)C1", "stereo": "centres undefined", "Mtb heat-shock": 28.09, "LdMetRS": 5.753, "Mtb growth Cornell": -27.28}
{"compound": "Cc1ccc(-c2ccc(C(=O)NCC(N)=O)c(F)c2)cc1", "Mtb heat-shock": -2.271, "LdMetRS": 6.211}
{"compound": "[H][C@@]12CCC(=O)N(CCOC)[C@@]1([H])CCN2S(=O)(=O)C1CC1", "Mtb heat-shock": 21.81, "Mtb growth Cornell": -5.298}
{"compound": "O=C(CCn1ncc2c(Cl)cccc21)NCCCn1cccn1", "Mtb heat-shock": 4.866, "LdMetRS": 5.779}

Some entries from above, unchanged:

| compound | Mtb heat-shock | LdMetRS | Mtb growth Cornell |
|---|---|---|---|
| `O=C(NC1CCCC1)c1cc(Cn2cnc3ccccc32)on1` | -152.5% | 20.24% | - |
| `O=C(Cn1ccc2ccc(Br)cc21)NCc1ccc(C(=O)O)cc1` | -10.52% | 2.113% | 14.62% |
| `CS(=O)(=O)CCC(=O)N1CCC(c2ccc(F)c(F)c2)CC1` | 5.747% | 12.63% | 34.71% |
| `CSCC(=O)N1CCOC(c2nc(C(C)C)n[nH]2)C1` (centres undefined) | -0.8306% | 14.92% | 26.7% |
| `CCCn1ccnc1CN1CCC(Oc2cccc(F)c2)(C(=O)O)CC1` | 7.54% | 9.966% | -27.23% |

From ChEMBL document CHEMBL3988442, “University of Dundee, Small-Polar-MMV Screening Library” (2021).